At least one peptide structure holds a part that was inferred or is arguable (an end, a ring closure or a residue). Peptide text beside a SMILES is read from it.
Assays:
[1] = system: normal primary human astrocytes; assay: In vitro fluorescent peptide binding assay, normal astrocytes; settings: lissamine-rhodamine conjugated peptide, 37° C., 20 min, FIG. 5C
HepG2 hepatoma cells = assay: Transfection with peptide/pEGFP-N1 complexes, fluorescence, HepG2; format: cell-based, human; settings: peptide: DNA 2:1, pEGFP-N1, 48 h post transfection, FIG. 3B(ii)
[2] = system: SF767, U251MG, and M059K human glioma cell lines; assay: In vitro fluorescent peptide binding assay, glioma cell lines; settings: lissamine-rhodamine conjugated peptide, 100 ng, 20 min, 37° C., FIG. 4
Procedure: (§1) For in vitro binding assay, 1×10^5 cells were seeded into each well of a 24-well dish (Nunc, Roskilde, Denmark). After culturing the cells overnight at 37° C., the cells were washed once with PBS, followed by incubating in blocking buffer containing PBS with 1% BSA at room temperature for 1 h. The cells were washed twice with PBS. One hundred nanogram of lissamine-rhodamine conjugated peptide (Mimotopes, Victoria, Australia) were added to the blocking buffer containing 0.1% sodium azide, and incubated with the cells at 37° C. for 20 min. This is followed by 5 washes of PBS with 0.1% Tween-20 at RT for 5 min intervals. The cells were then fix in 4% paraformaldehyde, followed by counterstaining using FITC-phalloidin (Sigma-Aldrich Corp., St. Louis, Mo.) and mounted. Images were captured digitally and analyzed using LSM 510 confocal microscope (Carl Zeiss Microscopy, Gottingen, Germany) with appropriate filters.
(§2) To determine the direct specific binding of the (K16)-MG11 peptide to cell surface of glioma cells, (K16)-MG11 peptide was conjugated to lissamine rhodamine. After incubating the conjugated (K16)-MG11 to the various tumor cell lines, SF767, U251MG, M059K, A549, HepG2, and HK1, for 20 minutes at 37° C., the cells were examined under confocal microscopy and the level of fluorescence detected were compared between glioma and non-glioma cells. […]

[3] = system: U251MG human glioma cells; assay: Transfection with peptide/pEGFP-N1 complexes, fluorescence, U251MG; format: cell-based; settings: peptide: DNA 2:1, pEGFP-N1, 48 h post transfection, FIG. 3B(ii)
U251 glioma cell line = assay: Transfection with peptide/pNGVL-Luc complexes, luciferase activity, U251; format: cell-based, human; settings: peptide: DNA 2:1, 48 h following transfection, FIG. 3B(i)
CNE2 cells = assay: Transfection with peptide/pNGVL-Luc complexes, luciferase activity, CNE2; format: cell-based, human; settings: peptide: DNA 2:1, 100 μM chloroquine, 24 h post-transfection, FIG. 3B(i)
SF767 glioma cells = assay: Transfection with peptide/pNGVL-Luc complexes, luciferase activity, SF767; format: cell-based, human; settings: for luciferase expression: chloroquine
Procedure: The formation and transfection of peptide/DNA complexes were carried out according to Patel et al. with slight modifications. […] […] […] The peptide was added dropwise to the DNA solution while vortexing gently (Stuart Scientific, UK). This mixture was allowed to incubate at room temperature (RT) for 30 min. After 30 min, the mixture was diluted to 4 μg/ml DNA with DMEM in the presence of 100 μM of chloroquine, and added to cells.
The human tumor cell lines, dGli36, SF767, U251, A549, HeLa, HepG2, and CNE2 were cultured in DMEM supplemented with 10% fetal bovine serum (FBS) (Hyclone Laboratories, Logan, Utah). For transfection, 3×10^5 cells were seeded into each well of a six-well plate (Nunc, Roskilde, Denmark). After culturing the cells overnight, the cells were washed twice with PBS. Freshly prepared peptide/DNA complexes were added into each well and incubated for 2 h at 37° C. For transfection performed in the presence of serum, FBS was added to a final concentration of 10% directly after addition of peptide/DNA complexes to each well. The reporter gene activity was assayed after 24 h or 48 h.
Cells were harvested from 6-well plates 24 h or 48 h following transfection, washed, resuspended in 120 μl of Tris-HCl (pH 7.8), and freeze-thawed three times. Cell debris was discarded following centrifugation at 14,000 g at 4° C. for 10 min. One hundred μl of the supernatant collected was used for assaying luciferase activity using the Auto-Lumat LB952 luminometer (EG&G Berthold, Bad Wildbad, Germany). Five microliter of the supernatant collected was used for the determination of protein concentration using the Bio-Rad protein assay dye reagent (Bio-Rad Laboratories, Hercules, USA) with the Ultrospec 3000 UV/visible spectrophotometer (Amersham Biosciences AB, Uppsala, Sweden).

SF767 glioma xenograft = assay: In vivo fluorescent peptide binding assay, intratumoral injection; settings: SCID mice, 100 μg lissamine-rhodamine conjugated peptide intratumorally, 20 min, FIG. 6
Procedure: SF767-tumor bearing mice were randomized into 2 groups (2 per group). Fifty microliter of 100 μg of lissamine rhodamine conjugated (K16)-MG11 or (K16)-H42 was injected intratumorally into 2 mice harboring the tumor, and allowed to circulate for 20 min. After 20 min, the mice were anethesized and perfused through the heart with PBS followed by 4% paraformaldehyde. The tumor were dissected and prepared for cryostat sections. The sections were then counterstained in FITC-phalloidin and mounted. Images were examined using LSM 510 meta confocal microscope (Carl Zeiss Microscopy, Göttingen, Germany) with appropriate filters.
After 20 min of circulation, the mouse bearing the SF767 glioma xenograft was perfused and tumor was harvested. The tumor sections were counterstained with FITC-labeled phalloidin, which stains F-actin, to determine the cell surface.

[4] = system: primary human glioma cells; assay: In vitro fluorescent peptide binding assay, primary glioma culture; settings: lissamine-rhodamine conjugated peptide, 37° C., 20 min, FIG. 5A
[5] = system: non-glioma cell lines (A549, HepG2, HK1); assay: In vitro fluorescent peptide binding assay, non-glioma cell lines; set-up: species or system human; settings: lissamine-rhodamine conjugated peptide, 100 ng, 20 min, 37° C., FIG. 4
Procedure: as §1, §2

## CC[C@H](C)[C@H](NC(=O)[C@H](CO)NC(=O)[C@H](CCCCN)NC(=O)[C@H](CCCCN)NC(=O)[C@H](CCCCN)NC(=O)[C@H](CCCCN)NC(=O)[C@H](CCCCN)NC(=O)[C@H](CCCCN)NC(=O)[C@H](CCCCN)NC(=O)[C@H](CCCCN)NC(=O)[C@H](CCCCN)NC(=O)[C@H](CCCCN)NC(=O)[C@H](CCCCN)NC(=O)[C@H](CCCCN)NC(=O)[C@H](CCCCN)NC(=O)[C@H](CCCCN)NC(=O)[C@H](CCCCN)NC(=O)[C@@H](N)CCCCN)C(=O)N1CCC[C@H]1C(=O)N[C@H](C(=O)N[C@@H](CCCCN)C(=O)N[C@@H](Cc1ccccc1)C(=O)N[C@@H](CC(N)=O)C(=O)N[C@@H](CCCCN)C(=O)N1CCC[C@H]1C(=O)N[C@@H](CC(C)C)C(=O)N[C@@H](Cc1c[nH]c2ccccc12)C(=O)N[C@@H](C)C(=O)N[C@H](C(=O)N[C@@H](Cc1ccccc1)C(=O)N1CCC[C@H]1C(=O)N1CCC[C@H]1C(=O)N[C@@H](CCCNC(=N)N)C(=O)N1CCC[C@H]1C(=O)N1CCC[C@H]1C(=O)N[C@@H](Cc1c[nH]c2ccccc12)C(=O)N[C@@H](CC(C)C)C(=O)O)[C@@H](C)O)C(C)C [(K16)-MG11, poly-L-lysine-SIPVKFNKP-MG11] (H-KKKKKKKKKKKKKKKKSIPVKFNKPLWATFPPRPPWL-OH)
[1]
  binding of fluorescent peptide: no fluorescence could be detected
HepG2 hepatoma cells
  eGFP green fluorescence: not
[2]
  cell surface fluorescence (confocal microscopy): detectable fluorescence
[3]
  eGFP green fluorescence: Strong green fluorescence could be detected
U251 glioma cell line
  level of luciferase expression at 48 h versus 24 h: increased dramatically
CNE2 cells
  luciferase activity: 19849 RLU/μg
SF767 glioma cells; 24 h post-transfection, FIG. 3B(i)
  luciferase activity in SF767 compared with CNE2 cells: at least 4 fold
SF767 glioma cells; 48 h, FIG. 3C
  luciferase expression in SF767 cells relative to CNE2 cells: 151 fold
SF767 glioma cells; SF767, 48 h, FIG. 3C
  luciferase expression relative to (K16)-H42 control peptide: 84 fold
SF767 glioma cells; complex with pNGVL-Luc, 48 h post transfection, FIG. 3C
  luciferase expression: 716940 RLU/pg
SF767 glioma cells; peptide: DNA 2:1, 100 μM chloroquine, 24 h post-transfection, FIG. 3B(i)
  luciferase activity: 85473 RLU/μg
SF767 glioma cells; peptide: DNA ratio (weight: weight) 2:1, 24 h, FIG. 3A(i)
  luciferase expression: 39803 RLU/μg protein
SF767 glioma cells; ratios 1:2, 2:1, 10:1, 20:1, 24 h post-transfection, FIG. 3A
  luciferase expression at various peptide to DNA ratios: increases with escalating ratios of peptide to DNA
SF767 glioma xenograft
  red fluorescence in tumor cryostat sections: red fluorescence binding
[4]
  binding of fluorescent peptide: Significant binding
[5]
  cell surface fluorescence (confocal microscopy): Little or no fluorescence

— patent publication US20070264191A1, “Materials and Methods Relating to the Treatment of Glioblastomas” (priority 2004, published 2007)
